PMC8994398
These are yes or no findings as the source states them, for the method shown. In cells and extracts the contact can be indirect. Here binding means that the protein was enriched with, or labelled near, the bait; the list need not be complete. Blank lines part the entries; values can stand above or below the molecule they belong to.

The chains behind the UniProt entries cited, without tags or fusion partners.
UniProt P50851: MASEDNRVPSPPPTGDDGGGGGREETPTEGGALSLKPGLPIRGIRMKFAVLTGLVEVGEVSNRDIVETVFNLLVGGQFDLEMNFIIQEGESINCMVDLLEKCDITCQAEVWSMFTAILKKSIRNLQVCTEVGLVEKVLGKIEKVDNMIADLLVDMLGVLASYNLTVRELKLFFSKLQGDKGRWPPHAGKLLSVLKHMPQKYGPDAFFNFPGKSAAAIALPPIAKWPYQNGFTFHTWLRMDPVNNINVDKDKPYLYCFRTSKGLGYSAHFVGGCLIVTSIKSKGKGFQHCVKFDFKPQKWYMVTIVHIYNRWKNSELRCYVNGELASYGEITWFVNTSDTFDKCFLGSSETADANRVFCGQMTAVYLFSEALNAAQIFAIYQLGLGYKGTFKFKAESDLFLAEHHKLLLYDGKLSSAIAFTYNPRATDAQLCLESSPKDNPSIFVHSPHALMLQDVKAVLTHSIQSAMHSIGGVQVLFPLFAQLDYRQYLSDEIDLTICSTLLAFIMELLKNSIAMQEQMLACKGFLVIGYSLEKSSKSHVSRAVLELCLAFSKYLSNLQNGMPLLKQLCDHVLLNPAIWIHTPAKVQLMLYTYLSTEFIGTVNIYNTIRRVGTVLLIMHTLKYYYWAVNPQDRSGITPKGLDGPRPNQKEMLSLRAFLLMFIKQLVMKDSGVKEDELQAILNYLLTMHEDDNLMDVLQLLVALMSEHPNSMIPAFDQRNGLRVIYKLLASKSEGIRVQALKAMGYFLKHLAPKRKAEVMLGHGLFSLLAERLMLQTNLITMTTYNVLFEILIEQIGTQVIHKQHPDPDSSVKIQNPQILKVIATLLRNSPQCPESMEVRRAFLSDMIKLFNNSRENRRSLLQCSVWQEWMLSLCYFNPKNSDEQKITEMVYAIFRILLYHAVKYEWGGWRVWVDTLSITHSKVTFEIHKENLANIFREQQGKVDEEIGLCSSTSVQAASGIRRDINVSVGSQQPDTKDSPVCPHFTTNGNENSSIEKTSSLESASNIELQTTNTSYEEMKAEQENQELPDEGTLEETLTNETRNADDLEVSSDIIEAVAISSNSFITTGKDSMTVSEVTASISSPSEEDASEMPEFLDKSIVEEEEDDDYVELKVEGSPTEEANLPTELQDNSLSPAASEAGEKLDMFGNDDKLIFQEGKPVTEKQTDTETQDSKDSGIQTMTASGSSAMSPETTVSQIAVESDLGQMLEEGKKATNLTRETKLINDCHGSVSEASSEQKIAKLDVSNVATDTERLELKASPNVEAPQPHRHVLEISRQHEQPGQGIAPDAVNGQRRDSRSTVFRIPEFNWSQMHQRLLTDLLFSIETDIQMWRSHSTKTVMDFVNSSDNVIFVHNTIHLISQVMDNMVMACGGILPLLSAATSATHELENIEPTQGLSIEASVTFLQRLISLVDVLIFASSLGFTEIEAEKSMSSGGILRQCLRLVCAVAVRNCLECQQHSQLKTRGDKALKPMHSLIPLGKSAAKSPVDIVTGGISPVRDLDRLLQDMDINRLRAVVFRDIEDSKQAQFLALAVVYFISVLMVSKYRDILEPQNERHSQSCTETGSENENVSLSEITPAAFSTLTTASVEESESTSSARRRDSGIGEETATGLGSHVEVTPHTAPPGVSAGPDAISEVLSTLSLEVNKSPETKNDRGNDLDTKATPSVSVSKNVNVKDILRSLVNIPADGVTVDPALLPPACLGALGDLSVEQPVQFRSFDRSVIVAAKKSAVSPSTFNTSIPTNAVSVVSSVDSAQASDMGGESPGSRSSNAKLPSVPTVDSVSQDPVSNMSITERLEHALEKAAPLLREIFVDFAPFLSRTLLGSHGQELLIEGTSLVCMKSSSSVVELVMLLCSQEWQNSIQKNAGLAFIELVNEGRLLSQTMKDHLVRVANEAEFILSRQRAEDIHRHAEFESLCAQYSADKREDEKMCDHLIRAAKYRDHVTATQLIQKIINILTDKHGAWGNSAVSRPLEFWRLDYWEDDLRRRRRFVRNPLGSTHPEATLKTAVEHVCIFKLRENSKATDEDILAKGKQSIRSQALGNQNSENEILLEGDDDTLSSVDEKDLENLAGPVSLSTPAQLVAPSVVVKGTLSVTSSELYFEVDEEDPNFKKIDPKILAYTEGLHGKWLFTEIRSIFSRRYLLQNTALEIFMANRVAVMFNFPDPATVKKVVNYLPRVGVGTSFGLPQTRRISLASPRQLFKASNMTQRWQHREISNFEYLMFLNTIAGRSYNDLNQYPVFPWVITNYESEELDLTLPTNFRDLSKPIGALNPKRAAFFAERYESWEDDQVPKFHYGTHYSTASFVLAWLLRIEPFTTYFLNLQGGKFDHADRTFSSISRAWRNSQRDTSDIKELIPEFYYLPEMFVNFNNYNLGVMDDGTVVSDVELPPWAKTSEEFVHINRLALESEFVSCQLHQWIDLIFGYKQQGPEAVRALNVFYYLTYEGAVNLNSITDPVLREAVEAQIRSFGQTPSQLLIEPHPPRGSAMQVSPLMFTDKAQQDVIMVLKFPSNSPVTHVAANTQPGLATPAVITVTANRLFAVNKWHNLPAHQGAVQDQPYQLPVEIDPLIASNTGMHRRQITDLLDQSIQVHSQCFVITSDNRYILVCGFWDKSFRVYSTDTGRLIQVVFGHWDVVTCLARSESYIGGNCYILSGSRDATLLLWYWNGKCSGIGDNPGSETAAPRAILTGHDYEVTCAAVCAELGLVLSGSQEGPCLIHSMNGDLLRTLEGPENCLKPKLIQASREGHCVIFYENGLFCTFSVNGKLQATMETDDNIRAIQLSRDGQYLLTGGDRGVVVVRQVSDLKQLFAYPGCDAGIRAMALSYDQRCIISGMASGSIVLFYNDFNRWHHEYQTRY

Biological target: T1, ATF1-T184D (activating transcription factor 1, Thr184Asp mutant) (UniProt P18846)
T1 sequence: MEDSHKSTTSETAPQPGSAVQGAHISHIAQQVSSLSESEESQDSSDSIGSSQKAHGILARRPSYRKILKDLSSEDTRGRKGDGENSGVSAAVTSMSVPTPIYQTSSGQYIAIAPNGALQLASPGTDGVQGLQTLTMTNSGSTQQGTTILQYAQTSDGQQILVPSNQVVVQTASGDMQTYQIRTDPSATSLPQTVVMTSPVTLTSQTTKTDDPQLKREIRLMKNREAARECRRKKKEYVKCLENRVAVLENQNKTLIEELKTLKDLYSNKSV
Assay: affinity purification with mass spectrometry; lysate of transfected MGC803 cells incubated with ATF1 antibody overnight at 4 °C, Protein A/G magnetic beads 1 h at RT, eluate separated by SDS-PAGE, silver staining, mass spectrometry; ATF1-T184D compared with ATF1-WT

- binding: binds
Molecule: LRBA (from UniProt P50851 1-2863)

- binding: binds
B1: S100A8 (protein, UniProt P05109 1-93)
chain: MLTELEKALNSIIDVYHKYSLIKGNFHAVYRDDLKKLLETECPQYIRKKGADVWFKELDINTDGAVNFQEFLILVIKMGVAAHKKSHEESHKE
